Test results published in US11077035B2, “Hair treatment compositions and methods” (SYTHEON LIMITED, priority 2017, dated 2021).

Test: Color fading of dyed hair tresses under UV exposure
Settings: for total color change ΔE: added to shampoo and conditioner, medium brown-colored hair, after 15 days of UV exposure

Compound	panelists who chose the treated tresses as having retained the most color (Compound 1F shampoo, medium brown hair)	total color change ΔE
COc1cc(CC(C(C)=O)C(C)=O)cc(OC)c1OC [Compound 1F, 3-(3,4,5-trimethoxybenzyl)-2,4-pentanedione]	95.1%	7.28
COc1ccc(CC(C(C)=O)C(C)=O)cc1OC [Compound 1D, 3-(3,4-dimethoxybenzyl)-2,4-pentanedione]		7.28
